The list does not hold the whole screen: it gathers tests that were run many times, whatever their T/C, doses with no T/C, and many T/C values between a quarter and a half above the control. Further doses and runs are listed elsewhere. T/C gives the treated animals as a percentage of the vehicle group. Some entries give survivors of the animals treated and no T/C: the source files T/C as zero there, which appears to mark a toxic dose or a test without result, not a measured value. Some survivor counts are full or nearly so, which does not show that the dose was tolerated: the source hardly ever lists a survival T/C far under the control, and the zero likely stands for such cases as well. Survivors were counted at the toxicity check, usually on the fifth day, unless a day is given; later deaths do not show. Schedules are NCI's codes, read here as Q, the interval in days (D) or hours (H), X, the number of doses. Some entries were tested several times; the results are listed from low to high. Where survival is the endpoint, this PubChem deposit counts one and a half times the control or more as active, and values a quarter to a half above the control carry no call in these data; other NCI protocols may use other cut-offs. Some T/C values carry the count of animals alive at the toxicity check (mostly the fifth day); where none is given, no animal had died by that day.

In the test the test system is P388 leukemia ip, CD2F1 mice, survival T/C. Put plainly: NCI In Vivo Anticancer Drug Screen. Data for tumor model P388 Leukemia (intraperitoneal) in CD2F1 (CDF1) mice. The settings on record: T/C endpoint: median survival time, higher T/C = longer survival.
Setting [1] is: dose: 200.0 mg/kg/injection, schedule: Q01DX009 (ip), vehicle: saline.
Where [2] appears, read: dose: 400.0 mg/kg/injection, schedule: Q04DX003 (ip), vehicle: saline.
The mark [3] stands for this setting: dose: 200.0 mg/kg/injection, schedule: Q01DX009 (ip), vehicle: saline with Tween-80.
Setting [4] is: dose: 400.0 mg/kg/injection, schedule: Q04DX002 (ip), vehicle: saline with Tween-80.
Setting [5] is: dose: 200.0 mg/kg/injection, schedule: Q01DX009 (ip), vehicle: Klucel (hydroxypropylcellulose) (HPC).
Where [6] appears, read: dose: 50.0 mg/kg/injection, schedule: Q01DX005 (ip), vehicle: Klucel (hydroxypropylcellulose) (HPC).
Where [7] appears, read: dose: 100.0 mg/kg/injection, schedule: Q01DX005 (ip), vehicle: Klucel (hydroxypropylcellulose) (HPC).
[8] abbreviates: dose: 200.0 mg/kg/injection, schedule: Q01DX005 (ip), vehicle: Klucel (hydroxypropylcellulose) (HPC).
Where [9] appears, read: dose: 240.0 mg/kg/injection, schedule: Q01DX005 (ip), vehicle: saline with Tween-80.
The mark [10] stands for this setting: dose: 200.0 mg/kg/injection, schedule: Q01DX005 (ip), vehicle: saline.
The mark [11] stands for this setting: dose: 240.0 mg/kg/injection, schedule: Q01DX005 (ip), vehicle: Klucel (hydroxypropylcellulose) (HPC).
Where [12] appears, read: dose: 50.0 mg/kg/injection, schedule: Q01DX009 (ip), vehicle: saline with Tween-80.
[13] abbreviates: dose: 100.0 mg/kg/injection, schedule: Q01DX009 (ip), vehicle: saline with Tween-80.

For the compound `CCN(CCCl)c1ccccc1`, the survivor count runs as follows: (dose: 50.0 mg/kg/injection, schedule: Q01DX009 (ip), vehicle: saline) 6 of 6; (dose: 100.0 mg/kg/injection, schedule: Q01DX009 (ip), vehicle: saline) 0 of 6; under setting [1], 0 of 6.
Take `Cc1ccc(NCCC2CCCN3CCCCC23)c2c(=O)c3ccccc3sc12` (stereo not drawn): the survivor count (dose: 50.0 mg/kg/injection, schedule: Q01DX005 (ip), vehicle: distilled water + Tween-80) is reported as 6 of 6; the survivor count (dose: 100.0 mg/kg/injection, schedule: Q01DX005 (ip), vehicle: distilled water + Tween-80) was 6 of 6; the survivor count (dose: 200.0 mg/kg/injection, schedule: Q01DX005 (ip), vehicle: distilled water + Tween-80) is on record as 2 of 6.
With `Cc1nc(C)n2cnnc2c1C`, under setting [2], the survivor count is recorded as 0 of 6.
On to `Cc1ccccc1/C=N\N1C(=O)C(C)SC1c1ccccc1C` (stereo not drawn), for which the survivor count under setting [3] was 6 of 6.
Turning to `CC(=O)OC1CC2CCCCC2[N+](C)(C)C1` (stereo not drawn), the survivor count (dose: 100.0 mg/kg/injection, schedule: Q04DX003 (ip), vehicle: saline) is on record as 6 of 6; the survivor count (dose: 200.0 mg/kg/injection, schedule: Q04DX003 (ip), vehicle: saline) is recorded as 0 of 6; the survivor count under setting [2] is recorded as 0 of 6.
With `O=Nc1ccc(O)c2ncccc12`, the T/C (dose: 200.0 mg/kg/injection, schedule: Q01DX001 (ip), vehicle: Klucel (hydroxypropylcellulose) (HPC)) was 130 % of control [5 of 6 alive].
With `COc1cccc2c1C(=O)c1c(O)c3c(c(O)c1C2=O)C[C@@](O)(C(C)O)C[C@@H]3OC1CC(NC(=O)C(F)(F)F)C(O)C(C)O1` (stereo partly drawn), the T/C is 140 % of control (dose: 1.56 mg/kg/injection, schedule: Q01DX009 (ip), vehicle: water); 125 and 145 % of control (dose: 3.13 mg/kg/injection, schedule: Q01DX009 (ip), vehicle: water); 145 % of control (dose: 6.25 mg/kg/injection, schedule: Q01DX009 (ip), vehicle: water).
Regarding `NC(=S)c1ccc(C2Nc3ccc(Cl)cc3N2)cc1` (stereo not drawn), the survivor count is, setting by setting: (dose: 100.0 mg/kg/injection, schedule: Q04DX002 (ip), vehicle: saline with Tween-80) 4 of 6; (dose: 200.0 mg/kg/injection, schedule: Q04DX002 (ip), vehicle: saline with Tween-80) 0 of 6; under setting [4], 1 of 6.
On to `C/C(=N\NC(=S)Nc1ccc(C(=O)O)cc1C)c1ccccn1`, for which the survivor count (dose: 200.0 mg/kg/injection, schedule: Q01DX005 (ip), vehicle: saline with Tween-80) is reported as 1 of 6.
As to `CCC(/C=C/c1ccc(OC)cc1)=N/Nc1ccccc1`, for the setting “dose: 240.0 mg/kg/injection, schedule: Q01DX005 (ip), vehicle: other”, the T/C is 128 % of control.
As for `CN(C)CC1CC1N1c2ccccc2Sc2ccc(Cl)cc21` (stereo not drawn), the survivor count under setting [5] is recorded as 3 of 6.
As to `O=NNc1nc(-c2ccccn2)nc2ccccc12`, the survivor count (dose: 50.0 mg/kg/injection, schedule: Q01DX009 (ip), vehicle: DMSO) is recorded as 6 of 6.
Regarding `O=C(O)CCC(=O)CCl`, the T/C is 127 % of control (dose: 6.25 mg/kg/injection, schedule: Q01DX009 (ip), vehicle: saline) and 136 % of control (dose: 12.5 mg/kg/injection, schedule: Q01DX009 (ip), vehicle: saline). Besides, the survivor count (dose: 100.0 mg/kg/injection, schedule: Q04DX003 (ip), vehicle: saline with Tween-80) is 2 of 6.
Consider `CC(C)[C@@H](C)/C=C/[C@@H](C)[C@H]1CC[C@@H]2[C@]1(C)CC[C@H]1[C@]23C=C[C@]2(C[C@@H](O)CC[C@]12C)OO3`, for which the survivor count (dose: 12.5 mg/kg/injection, schedule: Q01DX005 (ip), vehicle: Klucel (hydroxypropylcellulose) (HPC)) is listed as 6 of 6.
With `Nc1ccc(-c2csc(COc3ccccc3)n2)cc1`, under “dose: 400.0 mg/kg/injection, schedule: Q01DX009 (ip), vehicle: Klucel (hydroxypropylcellulose) (HPC)”, the survivor count is listed as 0 of 6.
In the case of `COc1c2occc2c(N=Cc2ccccn2)c2ccc(=O)oc12`, the survivor count reads like this: under setting [6], 6 of 6; under setting [7], 6 of 6; under setting [8], 6 of 6.
As to `CCN1CCC(=C(c2ccccc2)c2ccccc2)C1`, the survivor count under setting [5] was 0 of 6.
Turning to `O=C1C=C(Cl)C(=O)C(c2ccccc2)=C1Cl`, the survivor count is given as 5 of 5 (dose: 6.25 mg/kg/injection, schedule: Q01DX005 (ip), vehicle: Klucel (hydroxypropylcellulose) (HPC)); 4 of 5 under setting [6]; 2 of 5 under setting [7]; 0 of 5 under setting [8].
Take `Cc1nc(O)c(-c2ccc(Cl)cc2)c(=O)[nH]1`: the survivor count under setting [9] is listed as 0 of 6.
Take `OCC1OC2OC3C(CO)OC(OC4C(CO)OC(OC5C(CO)OC(OC6C(CO)OC(OC7C(CO)OC(OC8C(CO)OC(OC1C(O)C2O)C(O)C8O)C(O)C7O)C(O)C6O)C(O)C5O)C(O)C4O)C(O)C3O` (stereo not drawn): the survivor count under setting [1] is 5 of 6.
For the compound `CCN(Cc1ccc(CN(CC)C(=O)c2c(-c3ccccc3)noc2C)cc1)C(=O)c1c(-c2ccccc2)noc1C`, the survivor count (dose: 100.0 mg/kg/injection, schedule: Q01DX009 (ip), vehicle: suspension in saline) is on record as 6 of 6.
For the compound `Cc1cccc(C(=O)C(CN(C)C)CN(C)C)c1`, the survivor count was 0 of 6 and 1 of 5 (dose: 50.0 mg/kg/injection, schedule: Q01DX005 (ip), vehicle: saline); 0 of 5 (dose: 100.0 mg/kg/injection, schedule: Q01DX005 (ip), vehicle: saline); 0 of 5 under setting [10].
With `CC1=CC(=C2C(=O)c3ccccc3C2=O)C=C(C)N1CCN1CCCCC1`, the survivor count under setting [10] is 2 of 6 and the survivor count under setting [11] is on record as 4 of 6.
As for `C=C(C#N)C(NC(C)(C)C)c1ccccc1` (stereo not drawn), the survivor count reads like this: (dose: 100.0 mg/kg/injection, schedule: Q01DX001 (ip), vehicle: saline with Tween-80) 3 of 6; (dose: 200.0 mg/kg/injection, schedule: Q01DX001 (ip), vehicle: saline with Tween-80) 0 of 6; (dose: 400.0 mg/kg/injection, schedule: Q01DX001 (ip), vehicle: saline with Tween-80) 0 of 6.
As to `Nc1nc2[nH]ncc2c(=O)[nH]1`, the survivor count (dose: 200.0 mg/kg/injection, schedule: Q04DX003 (ip), vehicle: saline with Tween-80) was 2 of 6.
In the case of `CCN(CC)Cc1c(C)nc2ccc(N(C)C)cc2c1Cl`, the survivor count (dose: 100.0 mg/kg/injection, schedule: Q01DX009 (ip), vehicle: Klucel (hydroxypropylcellulose) (HPC)) is listed as 1 of 6 and the survivor count under setting [5] is listed as 0 of 6.
`NNP(=O)(Oc1ccccc1)Oc1ccccc1`: the survivor count is 3 of 6 under setting [12], 0 of 6 under setting [13] and 0 of 6 under setting [3].
As to `CCCCCCCC/C=C/CCCCCCCC(=O)NCCCN` (tested in a mixture with another compound), the survivor count (dose: 100.0 mg/kg/injection, schedule: Q04DX002 (ip), vehicle: saline) was 4 of 6.
With `CCCCCCCCCC(=O)c1ccc(O)c(O)c1O`, the survivor count was 2 of 6 (dose: 400.0 mg/kg/injection, schedule: Q01DX009 (ip), vehicle: saline) and 0 of 6 (dose: 600.0 mg/kg/injection, schedule: Q01DX009 (ip), vehicle: saline).
With `O=C(Nc1ccc(Cl)c(Cl)c1)OCc1ccco1`, the survivor count under setting [11] is 6 of 6.
As to `N/C(=N\OC(=O)Nc1ccc(CSc2ccc(Cl)cc2)o1)c1ccccn1`, the T/C under setting [7] is 126 % of control. Further, the survivor count under setting [8] was 4 of 6.
With `ClCc1nnc2n1-c1ccc(Cl)cc1SC2`, the survivor count under setting [9] is on record as 1 of 6.
With `SCc1ccccc1.[Cu+2]`, the survivor count by setting is: under setting [12], 3 of 6; under setting [13], 0 of 6; under setting [3], 0 of 6.
Consider `Cc1cc2c(cc1C)NC(c1ccc(C(N)=S)cc1)N2`, for which, under setting [4], the survivor count is listed as 4 of 6.

Values taken from PubChem BioAssay AID330 (DTP/NCI, 2004).
